These are yes or no findings as the source states them, for the method shown. Some binding calls cover weakened binding; strength is not graded here. One block for each substance: values may come before it.
Experiments:
[1] = target: GAL4 AD fusion of p62 nucleoporin aa 336-522 (pACT/p62(336-522)) (Homo sapiens (Human)) (UniProt P37198); test: yeast two-hybrid
[2] = target: T1, GAL4 DNA-binding domain (BD)/full-length TRAF-3 fusion construct (pGBT9/TRAF-3) (human) (UniProt P04386+Q13114); test: yeast two-hybrid library screen
[3] = target: T1, GAL4 DNA-binding domain (BD)/full-length TRAF-3 fusion construct (pGBT9/TRAF-3) (human); test: yeast two-hybrid
[4] = target: T1, GAL4 DNA-binding domain (BD)/full-length TRAF-3 fusion construct (pGBT9/TRAF-3) (human); test: yeast two-hybrid (β-gal, growth without His)

The chains behind the UniProt entries cited, without tags or fusion partners. Where a name states a change or a piece, a line headed by the entry shows the natural chain unless it says otherwise. Residues count along the entry.
UniProt P37198, residues 270-522: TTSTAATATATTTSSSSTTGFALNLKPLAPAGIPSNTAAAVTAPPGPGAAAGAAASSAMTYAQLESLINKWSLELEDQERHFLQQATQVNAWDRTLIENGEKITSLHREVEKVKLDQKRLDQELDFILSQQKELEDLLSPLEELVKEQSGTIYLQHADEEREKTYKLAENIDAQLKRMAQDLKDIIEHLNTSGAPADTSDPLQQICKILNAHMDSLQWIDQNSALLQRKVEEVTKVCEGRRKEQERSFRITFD
UniProt P04386: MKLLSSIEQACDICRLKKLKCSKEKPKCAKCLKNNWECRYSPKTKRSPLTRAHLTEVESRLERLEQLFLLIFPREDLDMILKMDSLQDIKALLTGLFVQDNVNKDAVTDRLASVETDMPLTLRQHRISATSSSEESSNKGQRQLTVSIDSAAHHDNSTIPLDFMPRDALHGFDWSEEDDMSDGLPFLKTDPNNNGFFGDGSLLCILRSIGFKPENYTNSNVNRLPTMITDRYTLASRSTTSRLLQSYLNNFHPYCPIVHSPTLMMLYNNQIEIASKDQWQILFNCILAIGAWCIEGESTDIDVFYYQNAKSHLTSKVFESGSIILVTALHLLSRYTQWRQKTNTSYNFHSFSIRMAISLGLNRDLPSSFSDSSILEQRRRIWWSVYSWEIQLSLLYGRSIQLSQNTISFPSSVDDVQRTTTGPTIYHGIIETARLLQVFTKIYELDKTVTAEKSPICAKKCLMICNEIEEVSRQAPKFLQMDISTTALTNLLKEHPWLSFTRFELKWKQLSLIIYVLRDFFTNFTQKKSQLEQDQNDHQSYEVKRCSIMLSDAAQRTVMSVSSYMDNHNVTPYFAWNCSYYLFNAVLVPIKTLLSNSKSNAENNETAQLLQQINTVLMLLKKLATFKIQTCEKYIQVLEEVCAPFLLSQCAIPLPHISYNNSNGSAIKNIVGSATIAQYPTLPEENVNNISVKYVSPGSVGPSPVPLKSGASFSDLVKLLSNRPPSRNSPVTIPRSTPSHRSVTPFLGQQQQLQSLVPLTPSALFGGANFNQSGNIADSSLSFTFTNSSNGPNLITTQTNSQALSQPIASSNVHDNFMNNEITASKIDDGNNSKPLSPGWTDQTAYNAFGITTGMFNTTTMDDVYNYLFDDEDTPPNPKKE
UniProt Q13114: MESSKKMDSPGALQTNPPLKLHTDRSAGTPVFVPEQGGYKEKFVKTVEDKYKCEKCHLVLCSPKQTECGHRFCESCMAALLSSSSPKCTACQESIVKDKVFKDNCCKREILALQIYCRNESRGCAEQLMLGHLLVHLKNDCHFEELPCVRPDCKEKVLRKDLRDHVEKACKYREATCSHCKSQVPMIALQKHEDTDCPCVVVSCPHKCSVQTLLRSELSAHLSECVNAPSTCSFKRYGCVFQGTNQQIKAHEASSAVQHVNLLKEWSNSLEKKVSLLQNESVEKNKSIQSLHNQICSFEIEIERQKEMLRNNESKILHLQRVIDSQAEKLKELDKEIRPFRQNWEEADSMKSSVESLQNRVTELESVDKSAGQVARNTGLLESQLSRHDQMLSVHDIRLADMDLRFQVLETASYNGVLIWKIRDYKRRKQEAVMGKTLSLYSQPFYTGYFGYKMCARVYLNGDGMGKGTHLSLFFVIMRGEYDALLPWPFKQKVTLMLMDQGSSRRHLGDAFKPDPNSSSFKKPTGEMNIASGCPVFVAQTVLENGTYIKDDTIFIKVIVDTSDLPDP

binding [1]: binds
Substance: GAL4 BD fusion of TRAF-3 aa 110-343 (Zn fingers and coiled-coil domain), in pGBT9 (from UniProt P04386 1-147; Q13114 110-343)

binding [2]: binds
Substance: GAL4 AD fusion of p62 nucleoporin aa 336-522 (pACT/p62(336-522)) (from UniProt P37198 336-522)

binding [3]: binds | binding [4]: binds
Substance: GAL4 AD fusion of p62 nucleoporin aa 270-522 (pACT/p62(270-522)) (from UniProt P37198 270-522)
